Measurements from patent US10987357B2, “Aerosolized fluoroquinolones and uses thereof” (Horizon Orphan, LLC, priority 2005, dated 2021).

Conditions: in vivo
Method: In the second test, the tolerability and taste of a small aerosol sample from a 0.5 ml aliquot of the test formulation was determined in a single healthy human volunteer, following nebulization in a PARI eFlow nebulizer (Table 12).
The tolerability and taste of the drug during a very brief administration period and for a period of 10 minutes post administration were monitored. Tolerability parameters were of the following types: (i) cough, cough sensation, or sneezing (ii) irritation, burning or tightness of throat, (ii) irritation or runniness in nasal passages or eyes, (iii) irritation, burning or tightness of the lungs or shortness of breadth, and (iv) dizziness, headache, nausea or other systemic effects.

O=C(O)c1cn(C2CC2)c2cc(N3CCNCC3)c(F)cc2c1=O [Ciprofloxacin]
cough on aerosol exposure: associated with cough
